The supplement of paper PMC12823440, “Inhibitors supercharge kinase turnover through native proteolytic circuits” (Nature, 2025)
Where a name gives a salt, the structure may show the parent alone. The list shows a part of the results. Hit calls seldom repeat between salt and free forms of one compound.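 In K562 cells expressing nanoluciferase-fused kinases, luminescence was recorded at 4 h intervals between 2 and 18 h, normalized as percent of control with DMSO at 100% and a positive control at 0%. A significant (2 sigma) signal drop marks a time point as decreased. The authors' rule for a hit is not shown and takes in more than the number of time points.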

Sequences of proteins named here, by UniProt entry; tags and fusion partners are left off. A change or cut given only in a name is not applied to a line headed by its entry.
UniProt Q15208: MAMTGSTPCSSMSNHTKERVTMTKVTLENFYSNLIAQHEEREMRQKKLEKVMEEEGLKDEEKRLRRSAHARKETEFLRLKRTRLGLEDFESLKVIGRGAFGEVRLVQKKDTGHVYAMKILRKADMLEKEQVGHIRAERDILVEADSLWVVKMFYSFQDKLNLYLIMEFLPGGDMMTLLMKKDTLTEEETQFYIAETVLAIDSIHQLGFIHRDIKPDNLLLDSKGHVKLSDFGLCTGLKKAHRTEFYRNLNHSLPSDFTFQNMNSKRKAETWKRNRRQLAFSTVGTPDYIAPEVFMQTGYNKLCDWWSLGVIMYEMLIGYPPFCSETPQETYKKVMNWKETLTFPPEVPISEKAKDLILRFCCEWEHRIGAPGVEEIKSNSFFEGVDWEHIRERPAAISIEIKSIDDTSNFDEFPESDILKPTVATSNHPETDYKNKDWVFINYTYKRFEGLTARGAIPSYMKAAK

Biological target: STK38 (UniProt Q15208)
Assay: number of time points (of 5) at which kinase-Nluc abundance scored as decreased, DMSO-normalised (count); higher = more persistent destabilization
Details: K562; 2-18 h

Compound | number of time points
CC(C)n1ncnc1-c1cn2c(n1)-c1ccc(O[C@@H](C)C(N)=O)cc1OCC2 (10 µM) | 0
O=C(c1cccc(Cl)c1F)N1CCN(Cc2cccc(Nc3nccs3)n2)CC1 (2.5 µM) | 0
COc1cc(F)ccc1-c1ncnc(Nc2cccc(C[S@](C)(=N)=O)c2)n1 [Atuveciclib] (2.5 µM) | 0
Cc1cnc(NC(=O)c2cc(Oc3cnc(C(=O)N(C)C)nc3)c3cc(C)oc3c2)cn1 (10 µM) | 0
CC1=C(C(=O)Nc2cc3cn[nH]c3cc2F)C(c2ccc(C(F)(F)F)cc2)CC(=O)N1 (stereo unspecified) (10 µM) | 0
NCC1CCC(CNc2nc(NCc3ccccc3OC(F)(F)F)ncc2[N+](=O)[O-])CC1 (stereo unspecified) [PKC-theta inhibitor] (10 µM) | 0
O=C1Nc2ccc(I)cc2/C1=C/c1cc(Br)c(O)c(Br)c1 (10 µM) | 0
COc1cc(-c2oc3cc(O)cc(O)c3c(=O)c2O)ccc1O [Isorhamnetin] (10 µM) | 0
O=C1OC(/C=C/c2ccccc2)=NC/1=C\c1cccnc1 (10 µM) | 0
Cn1ncc(NC(=O)c2nc(-c3c(F)cccc3F)sc2N)c1N1CC[C@@H](N)[C@H](F)CC1 (10 µM) | 0
CNC(=O)CNc1cnc2ccc(-c3ccc(OC)c(OC)c3)cc2n1 (10 µM) | 0
CO[C@H]1C[C@@H]2CC[C@@H](C)[C@@](O)(O2)C(=O)C(=O)N2CCCC[C@H]2C(=O)O[C@H]([C@H](C)C[C@@H]2CC[C@@H](OCCO)[C@H](OC)C2)CC(=O)[C@H](C)/C=C(\C)[C@@H](O)[C@@H](OC)C(=O)[C@H](C)C[C@H](C)/C=C/C=C/C=C/1C [Everolimus] (10 µM) | 0
O=C(Nc1cccnc1)c1cc(-c2ccnc(F)c2)ccc1OCc1ccccc1 (10 µM) | 0
COc1c(O)cc2oc(-c3ccc(O)cc3)cc(=O)c2c1O [Hispidulin] (10 µM) | 0
O=C1CC[C@H](NC(=O)Cc2ccccc2)C(=O)N1 [Antineoplaston A10] (10 µM) | 0
CC(C)Oc1ccc(F)c(-c2cnc(N)c(C(=O)Nc3cnccc3N3CCC[C@@H](C(=O)O)C3)n2)c1 (2 µM) | 0

Single values from the results shown:
COc1c(O)cc2oc(-c3ccc(O)cc3)cc(=O)c2c1O [Hispidulin] (10 µM) | number of time points: 0
CNC(=O)CNc1cnc2ccc(-c3ccc(OC)c(OC)c3)cc2n1 (10 µM) | number of time points: 0

(listing goes on)

Compound | number of time points
Nc1nc2c(nc(Br)n2[C@@H]2O[C@@H]3COP(=O)(O)O[C@H]3[C@H]2O)c(=O)[nH]1 [8-Bromo-cGMP (sodium)] (10 µM) | 0
Cc1cc(-n2c(=O)ccc3c[nH]c4nccc-4c32)ccc1F (10 µM) | 0
CO[C@H]1CC[C@H](N2C(=O)CNc3ncc(-c4ccc(C(C)(C)O)nc4)nc32)CC1 (2.5 µM) | 0
COc1cc2c(cc1OC)/C(=C/c1ccc(O)cc1)C(=O)N2 (10 µM) | 0
NCCOc1ccc(Cl)cc1C(=O)Nc1ccc([N+](=O)[O-])cc1Cl [HJC0152 hydrochloride] (2 µM) | 0
CCN(CC)CCOc1ccc(Nc2nc(-c3ccccc3NC(=O)CCN3CCN(C)CC3)nc3ccccc23)cc1 (2.5 µM) | 0
C=CC(=O)N1CCN(C(=O)CNc2cc(I)c(Cl)cc2O)CC1 [K-Ras(G12C) inhibitor 12] (10 µM) | 0
N[C@@H]1CCCN(c2c(/C=C3\SC(=O)NC3=O)cccc2-c2ccccc2)C1 (10 µM) | 0
O=C(Nc1cc(Cl)cc2c1[nH]c1cnccc12)c1cccnc1 (10 µM) | 0
C=C1C(=O)[C@@]23[C@H](O)C[C@@H]4C(C)(C)C(=O)CC[C@@]4(C)[C@@H]2CC[C@@H]1[C@H]3O [Glaucocalyxin A] (2.5 µM) | 0
C[C@@H]1O[C@@H](Oc2cc(O)c3c(=O)c(O[C@@H]4O[C@@H](C)[C@H](O)[C@@H](O)[C@H]4O)c(-c4ccc(O)cc4)oc3c2)[C@H](O)[C@H](O)[C@H]1O [Kaempferitrin] (10 µM) | 0
Cc1c(C(=O)Nc2ccc(Oc3ccnc4[nH]cc(-c5ccccc5)c34)c(F)c2)c(=O)n(-c2ccc(F)cc2)n1C (10 µM) | 0
c1nc2c(NC3CCCCC3)nc(Nc3ccc(N4CCOCC4)cc3)nc2[nH]1 [Reversine] (10 µM) | 0
CN1CCN(c2ccc(Nc3ncc4cc(C#N)c(=O)n(C5CCCC5)c4n3)cc2)CC1 (10 µM) | 0
NC[C@@](O)(c1ccc(Cl)cc1)c1ccc(-c2cn[nH]c2)cc1 (10 µM) | 0
